Laboratory results published in EP1988168A1 (Max-Planck-Gesellschaft zur Förderung der Wissenschaften …, dated 2008).
No constants are given. Whether binding was seen depends on the method and setting. For some of these results: In cells and extracts the contact can be indirect. Some entries that bind do so weakly or less than the wild type. Tags and fused reporters may be left off the sequences shown.

The chains behind the UniProt entries cited, without tags or fusion partners. Where a name states a change or a piece, a line headed by the entry shows the natural chain unless it says otherwise.
UniProt Q44176: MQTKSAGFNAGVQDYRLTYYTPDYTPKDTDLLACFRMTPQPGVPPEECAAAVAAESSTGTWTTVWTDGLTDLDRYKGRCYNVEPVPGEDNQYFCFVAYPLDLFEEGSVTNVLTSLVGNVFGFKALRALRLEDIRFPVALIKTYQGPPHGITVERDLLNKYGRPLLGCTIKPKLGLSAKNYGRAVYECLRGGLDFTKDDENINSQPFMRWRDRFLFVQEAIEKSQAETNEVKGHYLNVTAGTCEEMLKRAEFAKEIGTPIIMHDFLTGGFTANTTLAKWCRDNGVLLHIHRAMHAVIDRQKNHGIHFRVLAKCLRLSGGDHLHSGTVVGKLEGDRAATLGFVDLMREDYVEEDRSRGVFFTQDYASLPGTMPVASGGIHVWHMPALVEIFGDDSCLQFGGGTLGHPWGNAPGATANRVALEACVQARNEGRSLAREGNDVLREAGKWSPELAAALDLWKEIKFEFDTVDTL

How the values were obtained:
Syn7002-RbcL [1] = biological target: T1, Syn7002-RbcL (Synechococcus sp. PCC7002, UniProt Q44176 1-470); test: co-immunoprecipitation with anti-FLAG antibody from E. coli extract
T1 construct: Stood in the assays as monomers, dimers, assembly intermediates or RbcL8 core complex, depending on the experiment; also called wildtype RbcL; RbcL8

[2] = biological target: Syn7002-RbcL(F464A) (Synechococcus sp. PCC7002) (UniProt Q44176); test: co-immunoprecipitation with anti-FLAG beads
[3] = biological target: Syn7002-RbcL(F462A) (Synechococcus sp. PCC7002) (UniProt Q44176); test: co-immunoprecipitation with anti-FLAG beads
Syn7002-RbcL [4] = biological target: T1, Syn7002-RbcL; test: Native-PAGE and co-immunoprecipitation with anti-FLAG beads
Syn7002-RbcL [5] = biological target: T1, Syn7002-RbcL; test: pulse-chase in vitro translation, immunoprecipitation with anti-FLAG antibody
[6] = biological target: Syn6301-RbcL8 (Synechococcus sp. PCC6301) (UniProt P00880); test: incubation of purified proteins, gel filtration and immunoblot
[7] = biological target: Syn6301-RbcL8 (Synechococcus sp. PCC6301) (UniProt P00880); test: co-purification on Ni-NTA-agarose, MonoQ and gel filtration; Native-PAGE

B1: Syn7002-RbcX(Y17A)FLAG (protein, Synechococcus sp. PCC7002)
chain: MDYKDDDDKAGMEFKKVAKETAITLQSALTYQAVRLISQQLSETNPGQAIWLGEFSKRHPIQESDLYLEAMMLENKELVLRILTVRENLAEGVLEFLPEMVLSQIKQSNGNHRRSLLERLTQVDSSSTDQTEPNPGESDTSEDSE
With B1 the binding (Syn7002-RbcL [1]) was “binds”.

B2: AnaCA-RbcXFLAG (other, Anabaena sp. CA)
chain: MDYKDDDDKAGMNLKQIAKDTAKTLQSYLTYQALRTVLAQLGETNPPLALWLHNFSAGKVQDGEKYIEELFLEKPDLALRIMTVREHIAEEIAEFLPEMVVTGIQQANMEKRRQHLERMTQVSLSHPSPESEQQQFSDPDWDNLAS
notes: also called FLAG-tagged AnaCA-RbcX
With B2 the binding [2] was “binds”, the binding [3] was “binds” and the binding (Syn7002-RbcL [4]) was “binds”. For the same binder, the binding (Syn7002-RbcL [5]) was “binds” and the binding [6] was “binds”.

B3: AnaCA-RbcX (other, Anabaena sp. CA, UniProt Q44212 1-135, looked up)
chain: MNLKQIAKDTAKTLQSYLTYQALRTVLAQLGETNPPLALWLHNFSAGKVQDGEKYIEELFLEKPDLALRIMTVREHIAEEIAEFLPEMVVTGIQQANMEKRRQHLERMTQVSLSHPSPESEQQQFSDPDWDNLAS
notes: also called RbcX from Anabaena sp; CA
With B3 the binding [7] was “binds”.
